Experimental data taken from patent US6437157B1, “20-substituted steroids” (Hoechst Marion Roussel, priority 1994, dated 2002).
Values joined by “and” are separate entries in the source; they are usually repeats but may differ in a detail not shown here. Equal entries are not always repeated. For at least one compound, name, drawing or mass did not settle the structure.

Test system: Sigma receptor
Experiment: Sigma receptor relative bond affinity (RBA), 3H PPP displacement, rat brain membranes
Assay type: binding
Settings: 3 nM 3H PPP, haloperidol set equal to 100
Experimental: The relative bond affinity was evaluated for preparations of rat brain and testicle membranes.
Male Sprague-Dawley rats originating from Iffa Credo and weighing approximately 200 g were used. The animals were scarified by decapitation and the brain and testicles were removed and homogenized in 10 to 25 volumes of 50 mM Tris-HCl buffer (pH 7.7) at 4° C. using an Ultrathurax. The homogenates were centrigued at 30,000 g for 15 minutes at 4° C. and the pellets were washed 3 times by resuspension in the same buffer and centrifugation under the same conditions. The membranes obtained in this way were stored at −80° C. […]
The following two curves were drawn: percentage of bound tritiated marker 100×B/BO as a function of the logarithm of the concentration of unlabelled reference product or as a function of the logarithm of the concentration of unlabelled test product. The straight line of the following equation was determined: […]
The intersections of the straight line I50 and the curves allowed the evaluation of the concentrations of the unlabelled reference product (CH) and of the unlabelled test product (CX) which inhibited by 50% the specific binding of the tritiated marker on the receptor. The relative bond affinity (RBA) of the test product was determined by the equation: […]

C[C@]12CC[C@@H]3c4ccc(O)cc4CC[C@H]3[C@@H]1CCC2=O [Estrone]
Relative bond affinity (RBA) for the Sigma receptor, Brain (rat): <0.06 and <0.1
